Laboratory results reported in paper doi:10.1101/2022.05.03.490496.
Results are given in words; binding and its absence hold for the method and conditions named. Some entries that bind do so weakly or less than the wild type.

The chains behind the UniProt entries cited, without tags or fusion partners. Residues count along the entry.
UniProt Q8CIZ8, residues 764-2813: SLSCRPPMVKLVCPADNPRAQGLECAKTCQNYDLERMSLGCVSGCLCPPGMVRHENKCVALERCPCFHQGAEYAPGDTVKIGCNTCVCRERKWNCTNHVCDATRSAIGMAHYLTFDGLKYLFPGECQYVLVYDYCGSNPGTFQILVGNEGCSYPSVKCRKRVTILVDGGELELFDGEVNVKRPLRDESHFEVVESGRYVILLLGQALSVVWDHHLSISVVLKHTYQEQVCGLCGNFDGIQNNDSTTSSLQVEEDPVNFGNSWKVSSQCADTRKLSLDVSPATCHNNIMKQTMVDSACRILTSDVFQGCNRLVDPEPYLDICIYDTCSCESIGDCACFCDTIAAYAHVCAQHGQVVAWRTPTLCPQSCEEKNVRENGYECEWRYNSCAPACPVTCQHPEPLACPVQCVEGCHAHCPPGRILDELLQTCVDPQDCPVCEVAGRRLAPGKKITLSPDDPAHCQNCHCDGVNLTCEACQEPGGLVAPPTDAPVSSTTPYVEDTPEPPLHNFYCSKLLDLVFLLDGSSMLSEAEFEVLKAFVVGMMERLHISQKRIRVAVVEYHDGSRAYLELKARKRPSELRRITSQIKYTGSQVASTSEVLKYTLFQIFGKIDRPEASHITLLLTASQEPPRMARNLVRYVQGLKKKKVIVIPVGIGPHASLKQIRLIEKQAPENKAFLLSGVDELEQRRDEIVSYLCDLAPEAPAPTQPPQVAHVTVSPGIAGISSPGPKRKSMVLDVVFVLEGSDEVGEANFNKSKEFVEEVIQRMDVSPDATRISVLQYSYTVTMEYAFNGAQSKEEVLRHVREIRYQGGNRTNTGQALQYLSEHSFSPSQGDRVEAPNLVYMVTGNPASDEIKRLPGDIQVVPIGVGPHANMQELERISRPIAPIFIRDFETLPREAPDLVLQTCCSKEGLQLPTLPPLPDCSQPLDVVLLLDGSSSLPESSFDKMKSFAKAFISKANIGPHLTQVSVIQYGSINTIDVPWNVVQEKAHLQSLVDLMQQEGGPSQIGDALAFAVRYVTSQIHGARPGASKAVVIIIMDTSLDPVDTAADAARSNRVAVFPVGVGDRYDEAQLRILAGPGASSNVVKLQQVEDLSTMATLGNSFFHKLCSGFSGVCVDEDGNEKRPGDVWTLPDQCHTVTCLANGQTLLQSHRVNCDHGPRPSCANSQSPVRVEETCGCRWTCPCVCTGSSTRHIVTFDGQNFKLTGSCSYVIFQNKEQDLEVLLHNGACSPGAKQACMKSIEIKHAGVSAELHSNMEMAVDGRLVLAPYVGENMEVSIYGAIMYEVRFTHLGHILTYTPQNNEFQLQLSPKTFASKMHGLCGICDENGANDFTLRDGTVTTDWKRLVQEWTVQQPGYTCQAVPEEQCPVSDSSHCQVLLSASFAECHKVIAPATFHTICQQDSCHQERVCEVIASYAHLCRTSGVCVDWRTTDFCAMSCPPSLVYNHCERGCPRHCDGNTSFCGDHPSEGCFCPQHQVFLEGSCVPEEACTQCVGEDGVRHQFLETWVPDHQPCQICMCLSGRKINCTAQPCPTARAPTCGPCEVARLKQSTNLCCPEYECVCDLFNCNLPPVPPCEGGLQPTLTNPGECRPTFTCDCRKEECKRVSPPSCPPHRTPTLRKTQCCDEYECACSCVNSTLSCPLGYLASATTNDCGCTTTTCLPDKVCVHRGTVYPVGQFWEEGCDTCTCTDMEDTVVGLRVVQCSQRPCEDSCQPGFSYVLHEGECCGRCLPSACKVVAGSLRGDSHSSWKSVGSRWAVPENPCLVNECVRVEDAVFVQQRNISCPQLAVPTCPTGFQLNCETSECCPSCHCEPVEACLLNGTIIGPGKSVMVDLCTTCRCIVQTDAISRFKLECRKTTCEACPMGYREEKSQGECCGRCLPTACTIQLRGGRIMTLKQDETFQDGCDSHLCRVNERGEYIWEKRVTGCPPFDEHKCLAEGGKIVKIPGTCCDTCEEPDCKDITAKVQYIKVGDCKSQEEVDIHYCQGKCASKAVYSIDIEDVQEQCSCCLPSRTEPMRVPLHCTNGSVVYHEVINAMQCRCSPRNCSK

Biological target: von Willebrand factor (Vwf) (mouse (endogenous in blood plasma)) (UniProt Q8CIZ8)
Test: SDS/agarose gel electrophoresis with immunoblot

Substance: von Willebrand factor (Vwf) (from UniProt Q8CIZ8 764-2813)
- binding: binds
